For 26 targets, log2 fold change results are on record in the supplement of paper PMC10849652.

Chains of the proteins cited; added tags and fusions are not shown. Lines headed by an entry give the natural chain unless they say otherwise; changes in a name come on top.
UniProt Q9UKL6: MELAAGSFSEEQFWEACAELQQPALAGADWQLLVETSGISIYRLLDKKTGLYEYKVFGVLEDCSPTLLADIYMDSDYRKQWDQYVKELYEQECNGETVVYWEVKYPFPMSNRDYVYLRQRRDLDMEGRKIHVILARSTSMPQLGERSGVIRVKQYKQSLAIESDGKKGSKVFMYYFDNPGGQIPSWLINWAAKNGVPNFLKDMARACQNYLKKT
UniProt Q9NUG6, whole entry, looked up: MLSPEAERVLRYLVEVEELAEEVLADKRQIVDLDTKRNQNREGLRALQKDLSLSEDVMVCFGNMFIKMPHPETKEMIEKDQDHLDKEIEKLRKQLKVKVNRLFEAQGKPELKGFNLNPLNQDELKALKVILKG
UniProt P30101, whole entry, looked up: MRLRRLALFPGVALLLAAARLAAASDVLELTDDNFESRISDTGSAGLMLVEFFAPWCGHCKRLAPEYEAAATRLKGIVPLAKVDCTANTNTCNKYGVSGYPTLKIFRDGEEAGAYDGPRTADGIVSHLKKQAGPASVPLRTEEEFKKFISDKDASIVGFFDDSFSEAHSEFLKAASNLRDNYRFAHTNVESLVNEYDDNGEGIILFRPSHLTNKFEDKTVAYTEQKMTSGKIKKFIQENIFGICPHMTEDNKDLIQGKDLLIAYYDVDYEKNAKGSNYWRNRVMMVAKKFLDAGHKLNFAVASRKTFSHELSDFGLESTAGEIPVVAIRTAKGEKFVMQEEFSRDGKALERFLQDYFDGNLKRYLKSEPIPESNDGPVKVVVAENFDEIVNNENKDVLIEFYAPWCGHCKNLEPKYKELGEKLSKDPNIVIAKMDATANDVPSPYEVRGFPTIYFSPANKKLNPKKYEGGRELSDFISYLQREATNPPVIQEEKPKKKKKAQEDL
UniProt P05166: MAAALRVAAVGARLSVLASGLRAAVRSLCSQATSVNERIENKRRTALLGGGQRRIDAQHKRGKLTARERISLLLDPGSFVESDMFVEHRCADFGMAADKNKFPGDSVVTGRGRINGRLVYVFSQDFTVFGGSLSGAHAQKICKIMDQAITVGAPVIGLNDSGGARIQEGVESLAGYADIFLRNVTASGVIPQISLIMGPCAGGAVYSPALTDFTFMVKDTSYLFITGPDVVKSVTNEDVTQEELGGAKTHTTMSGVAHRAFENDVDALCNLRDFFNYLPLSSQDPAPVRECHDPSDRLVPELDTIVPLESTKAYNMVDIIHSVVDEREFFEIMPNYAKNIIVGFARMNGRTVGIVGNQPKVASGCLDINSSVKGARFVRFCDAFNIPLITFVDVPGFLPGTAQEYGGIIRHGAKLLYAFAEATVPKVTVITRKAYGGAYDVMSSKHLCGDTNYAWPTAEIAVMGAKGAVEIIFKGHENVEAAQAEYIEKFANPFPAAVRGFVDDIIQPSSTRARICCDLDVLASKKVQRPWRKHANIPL
UniProt P12004, whole entry, looked up: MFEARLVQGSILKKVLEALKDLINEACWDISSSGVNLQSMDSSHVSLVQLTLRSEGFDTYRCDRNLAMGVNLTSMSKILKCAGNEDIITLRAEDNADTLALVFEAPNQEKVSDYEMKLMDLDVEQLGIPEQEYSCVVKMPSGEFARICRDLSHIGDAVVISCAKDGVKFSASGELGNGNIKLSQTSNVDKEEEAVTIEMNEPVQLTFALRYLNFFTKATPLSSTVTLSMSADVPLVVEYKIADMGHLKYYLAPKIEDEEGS
UniProt Q96AQ6: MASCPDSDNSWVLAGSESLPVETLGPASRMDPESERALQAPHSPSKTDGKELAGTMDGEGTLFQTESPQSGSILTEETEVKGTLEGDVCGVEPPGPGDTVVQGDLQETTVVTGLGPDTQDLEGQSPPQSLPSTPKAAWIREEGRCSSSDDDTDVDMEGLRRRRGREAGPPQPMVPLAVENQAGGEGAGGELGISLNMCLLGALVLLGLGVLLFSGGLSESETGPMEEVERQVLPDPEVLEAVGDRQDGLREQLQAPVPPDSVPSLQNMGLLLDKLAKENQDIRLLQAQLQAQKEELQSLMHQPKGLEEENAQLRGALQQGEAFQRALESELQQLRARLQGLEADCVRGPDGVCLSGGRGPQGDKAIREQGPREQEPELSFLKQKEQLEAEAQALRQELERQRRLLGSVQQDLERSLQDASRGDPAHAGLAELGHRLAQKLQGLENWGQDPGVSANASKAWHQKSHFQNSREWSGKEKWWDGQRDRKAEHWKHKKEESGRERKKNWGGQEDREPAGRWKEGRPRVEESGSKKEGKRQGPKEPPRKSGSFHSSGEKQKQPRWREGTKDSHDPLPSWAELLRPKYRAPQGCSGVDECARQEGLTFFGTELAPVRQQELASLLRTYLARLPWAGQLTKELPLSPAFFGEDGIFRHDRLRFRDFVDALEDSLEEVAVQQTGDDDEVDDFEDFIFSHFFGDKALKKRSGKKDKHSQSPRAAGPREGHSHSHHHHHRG
UniProt Q15004: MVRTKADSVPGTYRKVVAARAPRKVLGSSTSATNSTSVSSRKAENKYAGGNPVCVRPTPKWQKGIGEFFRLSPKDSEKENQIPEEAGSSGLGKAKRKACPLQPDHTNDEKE
UniProt P61457: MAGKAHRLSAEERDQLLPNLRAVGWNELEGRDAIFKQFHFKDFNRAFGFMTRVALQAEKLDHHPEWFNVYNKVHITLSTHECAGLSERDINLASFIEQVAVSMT
UniProt Q9BRX2, whole entry, looked up: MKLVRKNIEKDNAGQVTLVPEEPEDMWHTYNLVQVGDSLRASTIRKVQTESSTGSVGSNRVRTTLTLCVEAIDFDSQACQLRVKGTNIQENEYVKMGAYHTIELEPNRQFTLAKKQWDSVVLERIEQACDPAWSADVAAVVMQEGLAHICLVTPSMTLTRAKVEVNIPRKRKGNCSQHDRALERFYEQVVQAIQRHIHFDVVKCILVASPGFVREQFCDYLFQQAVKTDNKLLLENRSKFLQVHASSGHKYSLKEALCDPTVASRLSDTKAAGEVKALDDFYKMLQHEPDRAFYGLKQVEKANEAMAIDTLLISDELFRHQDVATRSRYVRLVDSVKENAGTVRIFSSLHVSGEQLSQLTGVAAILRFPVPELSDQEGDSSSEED
UniProt Q5T2R2: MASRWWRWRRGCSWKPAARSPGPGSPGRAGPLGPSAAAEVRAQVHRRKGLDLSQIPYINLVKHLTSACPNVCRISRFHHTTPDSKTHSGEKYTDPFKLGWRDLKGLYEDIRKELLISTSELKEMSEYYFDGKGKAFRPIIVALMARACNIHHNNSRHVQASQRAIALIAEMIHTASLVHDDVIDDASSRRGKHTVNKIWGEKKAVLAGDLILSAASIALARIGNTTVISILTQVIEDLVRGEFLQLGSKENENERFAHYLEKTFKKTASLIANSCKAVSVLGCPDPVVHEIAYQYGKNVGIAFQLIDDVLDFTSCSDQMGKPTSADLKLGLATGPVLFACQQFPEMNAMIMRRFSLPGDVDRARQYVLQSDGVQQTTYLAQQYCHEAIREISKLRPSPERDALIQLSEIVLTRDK
UniProt Q15084: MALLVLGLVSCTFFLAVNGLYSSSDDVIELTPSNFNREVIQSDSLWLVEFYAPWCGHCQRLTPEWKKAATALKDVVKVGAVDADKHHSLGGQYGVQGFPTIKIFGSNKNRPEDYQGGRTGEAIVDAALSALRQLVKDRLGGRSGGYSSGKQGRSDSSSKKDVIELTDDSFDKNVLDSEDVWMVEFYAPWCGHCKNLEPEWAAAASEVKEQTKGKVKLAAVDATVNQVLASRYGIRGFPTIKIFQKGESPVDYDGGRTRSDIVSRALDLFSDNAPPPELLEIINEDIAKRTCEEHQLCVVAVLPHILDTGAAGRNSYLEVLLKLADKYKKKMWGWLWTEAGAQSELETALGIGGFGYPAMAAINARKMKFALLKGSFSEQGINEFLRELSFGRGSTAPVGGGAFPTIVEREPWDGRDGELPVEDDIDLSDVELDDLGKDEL
UniProt O14737: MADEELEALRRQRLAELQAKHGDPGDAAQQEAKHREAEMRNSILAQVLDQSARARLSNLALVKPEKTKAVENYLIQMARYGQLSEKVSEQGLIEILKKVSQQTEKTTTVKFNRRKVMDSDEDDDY
UniProt P09874, whole entry, looked up: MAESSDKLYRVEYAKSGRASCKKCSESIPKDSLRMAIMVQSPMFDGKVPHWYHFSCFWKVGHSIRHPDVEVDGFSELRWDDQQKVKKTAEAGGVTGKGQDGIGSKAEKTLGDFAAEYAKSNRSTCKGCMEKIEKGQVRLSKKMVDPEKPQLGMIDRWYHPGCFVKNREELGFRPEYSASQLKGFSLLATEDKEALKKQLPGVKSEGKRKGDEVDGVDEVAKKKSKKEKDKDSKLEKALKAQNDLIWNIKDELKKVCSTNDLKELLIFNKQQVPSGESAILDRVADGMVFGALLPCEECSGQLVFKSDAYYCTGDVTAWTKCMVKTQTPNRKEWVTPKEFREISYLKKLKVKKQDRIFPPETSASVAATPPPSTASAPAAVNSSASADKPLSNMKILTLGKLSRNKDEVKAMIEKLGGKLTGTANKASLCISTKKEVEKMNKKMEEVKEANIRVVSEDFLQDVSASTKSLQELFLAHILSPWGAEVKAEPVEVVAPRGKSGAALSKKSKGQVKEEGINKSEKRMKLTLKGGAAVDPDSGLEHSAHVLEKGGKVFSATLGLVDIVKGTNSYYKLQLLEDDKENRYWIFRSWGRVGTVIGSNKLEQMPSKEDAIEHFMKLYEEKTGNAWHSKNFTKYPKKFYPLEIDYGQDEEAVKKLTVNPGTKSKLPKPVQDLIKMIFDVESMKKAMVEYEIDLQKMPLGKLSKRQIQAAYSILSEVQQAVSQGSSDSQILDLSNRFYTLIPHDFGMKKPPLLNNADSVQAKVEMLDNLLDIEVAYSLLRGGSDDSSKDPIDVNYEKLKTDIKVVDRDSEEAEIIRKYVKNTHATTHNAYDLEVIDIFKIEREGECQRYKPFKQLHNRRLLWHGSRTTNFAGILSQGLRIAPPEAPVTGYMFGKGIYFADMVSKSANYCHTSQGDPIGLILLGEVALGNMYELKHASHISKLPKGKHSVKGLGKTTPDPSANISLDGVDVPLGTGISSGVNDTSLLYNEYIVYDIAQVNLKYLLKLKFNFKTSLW
UniProt Q7L3T8: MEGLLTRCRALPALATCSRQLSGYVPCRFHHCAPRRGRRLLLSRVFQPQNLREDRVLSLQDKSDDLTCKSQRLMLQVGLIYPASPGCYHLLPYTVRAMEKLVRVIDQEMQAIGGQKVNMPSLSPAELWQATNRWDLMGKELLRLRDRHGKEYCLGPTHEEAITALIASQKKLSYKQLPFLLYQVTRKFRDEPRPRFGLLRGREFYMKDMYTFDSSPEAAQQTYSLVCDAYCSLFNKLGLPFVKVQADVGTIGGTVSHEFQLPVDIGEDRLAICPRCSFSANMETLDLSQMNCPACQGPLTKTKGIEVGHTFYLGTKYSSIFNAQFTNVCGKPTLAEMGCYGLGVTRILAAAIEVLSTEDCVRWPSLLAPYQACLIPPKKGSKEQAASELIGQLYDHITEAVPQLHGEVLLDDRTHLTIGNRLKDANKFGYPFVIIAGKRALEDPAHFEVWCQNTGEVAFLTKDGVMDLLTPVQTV
UniProt Q8IZL8: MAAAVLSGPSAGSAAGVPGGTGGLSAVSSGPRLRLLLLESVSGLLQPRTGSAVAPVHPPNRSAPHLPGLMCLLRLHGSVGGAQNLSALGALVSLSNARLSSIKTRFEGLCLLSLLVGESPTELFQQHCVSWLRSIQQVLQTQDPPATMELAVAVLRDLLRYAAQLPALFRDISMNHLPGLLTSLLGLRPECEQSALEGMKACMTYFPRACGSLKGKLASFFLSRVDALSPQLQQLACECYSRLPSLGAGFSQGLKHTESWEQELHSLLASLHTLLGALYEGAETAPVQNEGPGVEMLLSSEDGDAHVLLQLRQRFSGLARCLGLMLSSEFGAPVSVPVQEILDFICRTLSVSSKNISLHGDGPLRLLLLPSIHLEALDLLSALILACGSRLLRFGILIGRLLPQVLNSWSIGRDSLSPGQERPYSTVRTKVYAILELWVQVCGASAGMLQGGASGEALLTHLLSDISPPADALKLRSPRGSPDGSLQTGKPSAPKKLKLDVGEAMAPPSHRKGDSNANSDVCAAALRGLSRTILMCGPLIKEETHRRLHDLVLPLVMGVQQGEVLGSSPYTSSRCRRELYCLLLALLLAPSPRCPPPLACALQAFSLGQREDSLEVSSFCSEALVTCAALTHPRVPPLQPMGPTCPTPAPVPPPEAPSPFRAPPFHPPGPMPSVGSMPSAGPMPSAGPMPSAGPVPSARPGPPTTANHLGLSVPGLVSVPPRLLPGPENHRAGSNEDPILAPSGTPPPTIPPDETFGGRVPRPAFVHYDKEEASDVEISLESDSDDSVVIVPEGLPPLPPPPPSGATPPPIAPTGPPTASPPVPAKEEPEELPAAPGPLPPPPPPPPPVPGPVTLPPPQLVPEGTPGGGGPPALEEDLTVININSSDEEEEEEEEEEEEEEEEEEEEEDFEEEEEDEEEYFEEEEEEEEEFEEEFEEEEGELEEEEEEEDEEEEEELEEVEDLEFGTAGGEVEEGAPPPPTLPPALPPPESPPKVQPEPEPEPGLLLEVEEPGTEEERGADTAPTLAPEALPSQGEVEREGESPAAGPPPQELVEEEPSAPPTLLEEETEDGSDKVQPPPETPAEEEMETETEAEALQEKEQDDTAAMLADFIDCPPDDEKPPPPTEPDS

Some of the results follow.

Holding throughout (assay): log2 fold change, soluble protein after heating vs DMSO (PISA); higher = thermal stabilisation; K562 lysate, 10 uM; active = over 0.2 and 3.5 SD of the protein, either way, in both replicates (recomputed)
Compound in assay [1]: NCC(=O)Nc1ccc(-n2nc(C(F)(F)F)cc2-c2ccc3c(ccc4ccccc43)c2)cc1
In outline:
(§1)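 Quantification was by TMTpro 16plex LC-MS/MS with equalised channel sums, applied to the supernatant after 21,000xg for 90 min. Samples were crude K562 extract at 1 mg/mL protein in PBS pH 7.4 with 1 mM MgCl2, treated with 10 μM compound for 30 min, heated for 3 min across 48°C-58°C, pooled and brought to 0.5% NP-40 at 4°C. Values are log-two fold changes in thermal stability relative to solvent controls, from duplicates.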

Compound in assay [2]: O=C(CCCCCCC(=O)Nc1ccccc1)NO [vorinostat]
In outline: as §1

Compound in assay [3]: O=C(O)c1ccc2c(c1)nc(Nc1cccc(Cl)c1)c1ccncc12 [silmitasertib]
The gist of the method: as §1

Compound in assay [4]: O=C1NC(=O)C(c2cnc3ccccn23)=C1c1cn2c3c(cc(F)cc13)CN(C(=O)N1CCCCC1)CC2
In outline:
as §1

Compound in assay [5]: c1cn2cc(-c3ccc4cn[nH]c4c3)nc(Nc3ccc(N4CCOCC4)cc3)c2n1 [entospletinib]
The gist of the method:
as §1

PCTP (UniProt Q9UKL6): the log2 fold change in assay [1] is inactive: 0.003; in assay [2], inactive: 0.111; in assay [3], inactive: 0.019; in assay [4], inactive: -0.043; in assay [5], inactive: 0.

As to PDRG1 (UniProt Q9NUG6), the log2 fold change is inactive: -0.084 in assay [1]; inactive: -0.068 in assay [2]; inactive: -0.022 in assay [3]; inactive: 0.008 in assay [4]; inactive: 0.078 in assay [5].

On to PEX13 (UniProt Q92968), for which the log2 fold change in assay [1] was inactive: 0.017; in assay [2], inactive: 0.219; in assay [3] it was inactive: 0.064; in assay [4], inactive: 0.028; in assay [5], inactive: -0.014.

For PEX16 isoform 2 (UniProt Q9Y5Y5), the log2 fold change in assay [1] was inactive: -0.268; in assay [2], inactive: 0.101; in assay [3], inactive: -0.015; in assay [4], inactive: 0.077; in assay [5], inactive: -0.028.

In the case of PCYOX1L (UniProt Q8NBM8), the log2 fold change is inactive: 0.029 in assay [1]; inactive: 0.048 in assay [2]; inactive: 0.001 in assay [3]; inactive: -0.031 in assay [4]; inactive: -0.014 in assay [5].

Regarding PDIA3 (UniProt P30101), the log2 fold change in assay [1] is inactive: -0.011; in assay [2], inactive: 0.057; in assay [3] it was inactive: 0.005; in assay [4], inactive: 0.02; in assay [5] it was inactive: 0.009.

With PCCB (UniProt P05166), the log2 fold change in assay [1] is inactive: 0.01; in assay [2], inactive: 0.062; in assay [3], inactive: 0.001; in assay [4], inactive: -0.013; in assay [5], inactive: 0.005.

Take PCNA (UniProt P12004): the log2 fold change is inactive: -0.006 in assay [1]; inactive: 0.064 in assay [2]; inactive: 0.003 in assay [3]; inactive: -0.018 in assay [4]; inactive: 0.009 in assay [5].

For PBXIP1 (UniProt Q96AQ6), the log2 fold change in assay [1] is inactive: 0.01; in assay [2], inactive: 0.07; in assay [3], inactive: -0.064; in assay [4] it was inactive: 0.01; in assay [5], inactive: 0.

In the case of PDK1 (UniProt Q15118), the log2 fold change in assay [1] was inactive: 0.194; in assay [2] it was inactive: -0.003; in assay [3], inactive: 0.082; in assay [4] it was inactive: -0.094; in assay [5] it was inactive: -0.223.

Turning to PCLAF (UniProt Q15004), the log2 fold change was inactive: 0.022 in assay [1]; active: -0.29 in assay [2]; inactive: -0.029 in assay [3]; inactive: -0.025 in assay [4]; inactive: 0.009 in assay [5].

For the target PCBD1 (UniProt P61457), the log2 fold change in assay [1] is inactive: 0.033; in assay [2], inactive: 0.133; in assay [3], inactive: -0.012; in assay [4], inactive: -0.036; in assay [5], inactive: -0.01.

Regarding PELO (UniProt Q9BRX2), the log2 fold change was inactive: 0.021 in assay [1]; active: -0.495 in assay [2]; inactive: 0.058 in assay [3]; inactive: 0.02 in assay [4]; inactive: 0.006 in assay [5].

As for PFAS (UniProt O15067), the log2 fold change in assay [1] is inactive: 0.029; in assay [2], active: -0.272; in assay [3] it was inactive: 0.022; in assay [4], inactive: 0.031; in assay [5], inactive: 0.016.

Take PEX5 isoform 4 (UniProt P50542): the log2 fold change is inactive: -0.026 in assay [1]; inactive: -0.072 in assay [2]; inactive: 0.005 in assay [3]; inactive: 0.018 in assay [4]; inactive: 0.003 in assay [5].

For PFDN6 (UniProt O15212), the log2 fold change in assay [1] is inactive: -0.065; in assay [2], inactive: 0.156; in assay [3], inactive: -0.026; in assay [4], inactive: 0.049; in assay [5], inactive: -0.02.

For the target PCBP2 isoform 8 (UniProt Q15366), the log2 fold change in assay [1] is inactive: -0.06; in assay [2] it was active: -0.489; in assay [3] it was inactive: -0.037; in assay [4] it was inactive: 0.054; in assay [5], inactive: -0.091.

Take PDSS1 (UniProt Q5T2R2): the log2 fold change was inactive: -0.013 in assay [1]; inactive: 0.241 in assay [2]; inactive: -0.044 in assay [3]; inactive: -0.037 in assay [4]; inactive: -0.026 in assay [5].

Consider PDCD2L (UniProt Q9BRP1), for which the log2 fold change in assay [1] is inactive: 0.011; in assay [2], inactive: -0.065; in assay [3] it was inactive: -0.008; in assay [4], inactive: 0.016; in assay [5], inactive: -0.009.

On to PDIA6 isoform 2 (UniProt Q15084), for which the log2 fold change in assay [1] was inactive: 0.012; in assay [2] it was inactive: 0.07; in assay [3], inactive: 0.013; in assay [4], inactive: 0.002; in assay [5] it was inactive: -0.005.

For the target PFDN5 (UniProt Q99471), the log2 fold change is inactive: -0.053 in assay [1]; inactive: 0.214 in assay [2]; inactive: -0.048 in assay [3]; inactive: 0.083 in assay [4]; inactive: -0.088 in assay [5].

PDCD5 (UniProt O14737): the log2 fold change is inactive: -0.007 in assay [1]; inactive: 0.124 in assay [2]; inactive: -0.009 in assay [3]; inactive: -0.032 in assay [4]; inactive: -0.042 in assay [5].

Take PARP16 isoform 3 (UniProt Q8N5Y8): the log2 fold change in assay [1] is inactive: -0.124; in assay [2], inactive: -0.137; in assay [3], inactive: 0; in assay [4], inactive: 0.034; in assay [5] it was inactive: -0.01.

Turning to PARP1 (UniProt P09874), the log2 fold change was inactive: -0.003 in assay [1]; inactive: -0.205 in assay [2]; inactive: 0.033 in assay [3]; inactive: 0.004 in assay [4]; inactive: 0.045 in assay [5].

Regarding PARS2 (UniProt Q7L3T8), the log2 fold change in assay [1] is inactive: -0.006; in assay [2] it was inactive: 0.033; in assay [3], inactive: -0.023; in assay [4] it was inactive: 0.013; in assay [5] it was inactive: -0.02.

Regarding PELP1 (UniProt Q8IZL8), the log2 fold change in assay [1] was inactive: 0.099; in assay [2], inactive: 0.094; in assay [3], inactive: 0.007; in assay [4] it was inactive: 0.032; in assay [5] it was inactive: -0.076.
